This is one part of the list.
Each sequence was assayed against OsWRKY34 (Oryza sativa, UniProt Q0JBA9 1-250) (assay: protein-binding microarray (RPBM); PBS, 2% BSA, 51.3 ng/ul salmon testes DNA, 50 uM zinc acetate, 200 nM TF, 25 C, 1 h; high values mean tight binding). Conditions: protein: recombinant; tags: N-terminal polyhistidine and DsRed monomer fusion (pET32a); label: CyDye5-dUTP incorporated in the synthesized complementary strand; 3' TTTTT single-stranded linker to array surface; dsDNA, one strand shown.
Outline: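 Ni–NTA purification followed expression in E. coli BL21-CodonPlus of transcription factors fused N-terminally to a polyhistidine tag and DsRed. At 200 nM in PBS with 2% BSA, salmon testes DNA and 50 µM zinc acetate, the protein was incubated for 1 h at 25 °C with a custom Agilent array that had been primer-extended with Cy5-dUTP and blocked with 2% BSA. After washing, the array was read on an Axon 4000B scanner. The binding signal is per-feature fluorescence intensity in arbitrary units.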

Chains of the proteins cited; added tags and fusions are not shown.
UniProt Q0JBA9, entry or part of it: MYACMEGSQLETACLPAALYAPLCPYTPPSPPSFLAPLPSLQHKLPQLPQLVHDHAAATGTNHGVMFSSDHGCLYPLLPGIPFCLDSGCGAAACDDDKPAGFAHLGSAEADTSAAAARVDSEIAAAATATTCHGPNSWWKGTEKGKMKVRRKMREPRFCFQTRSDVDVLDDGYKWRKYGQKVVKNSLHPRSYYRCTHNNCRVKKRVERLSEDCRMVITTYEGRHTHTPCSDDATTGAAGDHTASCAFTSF

Row | Sequence | binding signal
1 | ATTTTTTTAATTCCGAATTTCTTTTTTTTCTTAATTGTATCGGAGTCACCTAGTGCAG | 10100 fluorescence intensity (a.u.)
2 | TTTCTTCTTCGTCTCCGTCGCCTAGTCGGCTTCGCCTCCGCGGAGTCACCTAGTGCAG | 9520 fluorescence intensity (a.u.)
3 | AAACCACATCATATCATGCGTAGTTATTACTATATTATATCGGAGTCACCTAGTGCAG | 8760 fluorescence intensity (a.u.)
4 | ATGAACACCACGTCGTCCGTCTCCACTCCGCCTGCGTACACGGAGTCACCTAGTGCAG | 10600 fluorescence intensity (a.u.)
5 | GCCCAATTATTACTCCTCCACTACTACTCCTCCACCCGCGCGGAGTCACCTAGTGCAG | 9220 fluorescence intensity (a.u.)
6 | TACAAATAAAACAAAATATGTTTAAAAAAGTCAACGGCATCGGAGTCACCTAGTGCAG | 10600 fluorescence intensity (a.u.)
7 | ATCTGTAGCCCGCTGCTCTTCTCTCTCTTCCTTTATCTCTCGGAGTCACCTAGTGCAG | 10600 fluorescence intensity (a.u.)
8 | AACTTGAATACGTTGAATTTAAATATGTACGTACGTTTGTCGGAGTCACCTAGTGCAG | 8640 fluorescence intensity (a.u.)
9 | CTTCAAGCTACCTTGCTTCTCCAGATCACTCTCTTTCAGCCGGAGTCACCTAGTGCAG | 8780 fluorescence intensity (a.u.)
10 | ATGTCATGTCATGGTCGTCTCTTCTCTTGGAGGATTATTACGGAGTCACCTAGTGCAG | 8060 fluorescence intensity (a.u.)
11 | CTTAACGGCCCATTTATCTTGTCTCTCTGGCCCACCTGCACGGAGTCACCTAGTGCAG | 12300 fluorescence intensity (a.u.)
12 | GACTATGCGCGCTATATAAAGGATCACATTATCTCATACTCGGAGTCACCTAGTGCAG | 8930 fluorescence intensity (a.u.)
13 | CTTGATAATTACTCTTACGTCCCTCACCCTATGTTCCTGTCGGAGTCACCTAGTGCAG | 8960 fluorescence intensity (a.u.)
14 | AATGGCTCACTACCTCGTTTTAAGTTTTTTCCCAATTTTCCGGAGTCACCTAGTGCAG | 9970 fluorescence intensity (a.u.)
15 | GAAATGTTTGTTGATCATTCGTCTTATTTAAATTTTTTTGCGGAGTCACCTAGTGCAG | 8650 fluorescence intensity (a.u.)
16 | CTCACGCTCGCAACAACACAAAACCCTAGACTTGCACAGACGGAGTCACCTAGTGCAG | 8160 fluorescence intensity (a.u.)
17 | TTTTAACATTTTTCTTGCACTGTTTGACCATTCGTCTTATCGGAGTCACCTAGTGCAG | 10400 fluorescence intensity (a.u.)
18 | CTTTCTTTTTCCTTCTCTCTCTCTTTTCTTTCTTTTCTTTCGGAGTCACCTAGTGCAG | 13600 fluorescence intensity (a.u.)
19 | ATCCTGCGACCGCGGCTCAATCCCAATCCCATGCCGATCCCGGAGTCACCTAGTGCAG | 9310 fluorescence intensity (a.u.)
20 | GAACAAAAATCCATTGACCACTTCCTCTCTCTCTTCGTCACGGAGTCACCTAGTGCAG | 10600 fluorescence intensity (a.u.)
21 | CGGTATTATTTTATTTTTTACTATGATGTTCTATTCAATTCGGAGTCACCTAGTGCAG | 8660 fluorescence intensity (a.u.)
22 | TCGCAAGAGTTGTTGAAAGTTGACCAGCATATTGAGGCCCCGGAGTCACCTAGTGCAG | 8130 fluorescence intensity (a.u.)
23 | ACTTCTCGTGCCAATGTGCGCGCACGGCTTTTTTTTTTTTCGGAGTCACCTAGTGCAG | 13600 fluorescence intensity (a.u.)
24 | GGATTTAGGCTGCTTCACAACTACATTCTAGACCCGACTCCGGAGTCACCTAGTGCAG | 8080 fluorescence intensity (a.u.)
25 | CCAATTTGTAGCCACTCTCAACTCTACCTTACTAAAATTTCGGAGTCACCTAGTGCAG | 8170 fluorescence intensity (a.u.)
26 | CGGCCTGCCTGCTCTGCCCGCCACCACGCTGCCAGCTTCGCGGAGTCACCTAGTGCAG | 8300 fluorescence intensity (a.u.)
27 | GCTTTGGGGCTAATTTGATTTCAAGACAATTTGGTATTAGCGGAGTCACCTAGTGCAG | 8440 fluorescence intensity (a.u.)

Row | Sequence | binding signal
28 | GGGGCAAAAATCACCTAATCTAAACCCTTCTCACAAAACTCGGAGTCACCTAGTGCAG | 8310 fluorescence intensity (a.u.)
29 | ACGGCATCGGCTCCTGCATCGTCTCCACGCCTACTCCATCCGGAGTCACCTAGTGCAG | 13700 fluorescence intensity (a.u.)
30 | AATCAAACGACCATTCCTATGTTTTGCAATCCTCTGTTTTCGGAGTCACCTAGTGCAG | 11900 fluorescence intensity (a.u.)
31 | CGCCCGTGTCTTGTGTGTTTCCATTCTCGCGAACCTTCCACGGAGTCACCTAGTGCAG | 16100 fluorescence intensity (a.u.)
32 | GACAAAAGCAACCCCACTCCTCCTACCTGTCCCCGCACAACGGAGTCACCTAGTGCAG | 8090 fluorescence intensity (a.u.)
33 | AGGATATGTCACCCAGTACTAGTTGGTTTTTTATGGGACGCGGAGTCACCTAGTGCAG | 9190 fluorescence intensity (a.u.)
34 | ATCGTCCGTCACCACGTGCAACCCTATCGCCGCTGCCGGCCGGAGTCACCTAGTGCAG | 10500 fluorescence intensity (a.u.)
35 | TATCACGCGCTCCACCCTATTCCGTCGCTGTTTCTGTTTGCGGAGTCACCTAGTGCAG | 8360 fluorescence intensity (a.u.)
36 | TTTGCCCTTGACCACCGCCGCCGCCTCCGCCTCCGCCGATCGGAGTCACCTAGTGCAG | 10700 fluorescence intensity (a.u.)
37 | CAATCTCGGCGGATCACTCTCATACCCCATCGGTCCATCCCGGAGTCACCTAGTGCAG | 8740 fluorescence intensity (a.u.)
38 | CGCTGGCACAATTGCACGCTTGCACCTCTCAGTTCGTTTCCGGAGTCACCTAGTGCAG | 9480 fluorescence intensity (a.u.)
39 | ATCCACTTATATATACACACATTTGTAATTTGTATCTATACGGAGTCACCTAGTGCAG | 8270 fluorescence intensity (a.u.)
40 | CGCCGCTGCCTTCACGCGCCCAGCCGGCAGCCACCCAGGCCGGAGTCACCTAGTGCAG | 8180 fluorescence intensity (a.u.)
41 | GCTAGTTCTTGCATGAGAGCCAACATCCTTGATATTTTGTCGGAGTCACCTAGTGCAG | 8570 fluorescence intensity (a.u.)
42 | GCGGAGGCAGGGAGGGTTTTGGAATTTTCGGCCGCCGTTGCGGAGTCACCTAGTGCAG | 10100 fluorescence intensity (a.u.)
43 | TGTAGTAAGTTTTCTGTTGTGCACAAGCGTTCAAGCGTCGCGGAGTCACCTAGTGCAG | 8090 fluorescence intensity (a.u.)
44 | ACCTGACGCCTCGCCCGGGCTTCTACGTCGCCTGCATTCCCGGAGTCACCTAGTGCAG | 11000 fluorescence intensity (a.u.)
45 | TCCTTCCGCGCTCGCCGCCCCTTTCGTGCTCGCCACCACACGGAGTCACCTAGTGCAG | 10400 fluorescence intensity (a.u.)
46 | TGGCGACAGTCGGGAGGGTGGGAGCTATAGGGGCTATCGCCGGAGTCACCTAGTGCAG | 9770 fluorescence intensity (a.u.)
47 | TCGTTATACTTCCCTTTATTTCTCATCTTTTCTAATCCAACGGAGTCACCTAGTGCAG | 8320 fluorescence intensity (a.u.)
48 | GGTGCTGTCTATGTCTACTCTTTTCCGCAGCAATACCTATCGGAGTCACCTAGTGCAG | 9300 fluorescence intensity (a.u.)
49 | TGTGGTGGGTGATAGGGAATGGGAGGTTTACAGGGTGCACCGGAGTCACCTAGTGCAG | 8280 fluorescence intensity (a.u.)
50 | CTGCCGGCCTCCTTGCAGCAACCCTTCTTCTTCTTCTTCTCGGAGTCACCTAGTGCAG | 9510 fluorescence intensity (a.u.)
51 | CCTTATATCTTGTTTAGATACCTTATTTGTCACCTTTTGACGGAGTCACCTAGTGCAG | 9620 fluorescence intensity (a.u.)
52 | GTCGTCTCATACCAATCGTGCGGCGGCGGCGGCGGGGATGCGGAGTCACCTAGTGCAG | 10400 fluorescence intensity (a.u.)
53 | ATTTTGTACTATAAGTTCATATACAGTCCTTCCATTTGTCCGGAGTCACCTAGTGCAG | 8120 fluorescence intensity (a.u.)
54 | CTCTAGGAAAGCTCTGTTTCTTGTGTTCTGTTACTCTTATCGGAGTCACCTAGTGCAG | 9740 fluorescence intensity (a.u.)

Given with tabs: part of the list above.
Row	Sequence	binding signal
30	AATCAAACGACCATTCCTATGTTTTGCAATCCTCTGTTTTCGGAGTCACCTAGTGCAG	11900 fluorescence intensity (a.u.)
31	CGCCCGTGTCTTGTGTGTTTCCATTCTCGCGAACCTTCCACGGAGTCACCTAGTGCAG	16100 fluorescence intensity (a.u.)

Source: article PMC7819943, “Rice protein-binding microarrays: a tool to detect cis-acting elements near promoter regions in rice”
